For this experiment, the target named is S-tagged ZIKV NS4B (Zika virus (ZIKV), 2015 epidemic in Brazil). Put plainly: pull-down.

These are yes or no findings as the source states them, for the method shown. In cells and extracts the contact can be indirect. A result given as binding can be weak or reduced; the word gives no strength.

B1: EMC1 (protein, UniProt Q8N766 23-993)
chain: YEDQVGKFDWRQQYVGKVKFASLEFSPGSKKLVVATEKNVIAALNSRTGEILWRHVDKGTAEGAVDAMLLHGQDVITVSNGGRIMRSWETNIGGLNWEITLDSGSFQALGLVGLQESVRYIAVLKKTTLALHHLSSGHLKWVEHLPESDSIHYQMVYSYGSGVVWALGVVPFSHVNIVKFNVEDGEIVQQVRVSTPWLQHLSGACGVVDEAVLVCPDPSSRSLQTLALETEWELRQIPLQSLDLEFGSGFQPRVLPTQPNPVDASRAQFFLHLSPSHYALLQYHYGTLSLLKNFPQTALVSFATTGEKTVAAVMACRNEVQKSSSSEDGSMGSFSEKSSSKDSLACFNQTYTINLYLVETGRRLLDTTITFSLEQSGTRPERLYIQVFLKKDDSVGYRALVQTEDHLLLFLQQLAGKVVLWSREESLAEVVCLEMVDLPLTGAQAELEGEFGKKADGLLGMFLKRLSSQLILLQAWTSHLWKMFYDARKPRSQIKNEINIDTLARDEFNLQKMMVMVTASGKLFGIESSSGTILWKQYLPNVKPDSSFKLMVQRTTAHFPHPPQCTLLVKDKESGMSSLYVFNPIFGKWSQVAPPVLKRPILQSLLLPVMDQDYAKVLLLIDDEYKVTAFPATRNVLRQLHELAPSIFFYLVDAEQGRLCGYRLRKDLTTELSWELTIPPEVQRIVKVKGKRSSEHVHSQGRVMGDRSVLYKSLNPNLLAVVTESTDAHHERTFIGIFLIDGVTGRIIHSSVQKKAKGPVHIVHSENWVVYQYWNTKARRNEFTVLELYEGTEQYNATAFSSLDRPQLPQVLQQSYIFPSSISAMEATITERGITSRHLLIGLPSGAILSLPKALLDPRRPEIPTEQSREENLIPYSPDVQIHAERFINYNQTVSRMRGIYTAPSGLESTCLVVAYGLDIYQTRVYPSKQFDVLKDDYDYVLISSVLFGLVFATMITKRLAQVKLLNRAWR
B1: the binding result is “binds”.

Source of the values: PMC6521869.
